Results are given in words; binding and its absence hold for the method and conditions named. For some assays here: Binding seen in cells or lysates may run through a third protein. Some binding calls cover weakened binding; strength is not graded here.

Sequences of proteins named here, by UniProt entry; tags and fusion partners are left off.
UniProt O43432: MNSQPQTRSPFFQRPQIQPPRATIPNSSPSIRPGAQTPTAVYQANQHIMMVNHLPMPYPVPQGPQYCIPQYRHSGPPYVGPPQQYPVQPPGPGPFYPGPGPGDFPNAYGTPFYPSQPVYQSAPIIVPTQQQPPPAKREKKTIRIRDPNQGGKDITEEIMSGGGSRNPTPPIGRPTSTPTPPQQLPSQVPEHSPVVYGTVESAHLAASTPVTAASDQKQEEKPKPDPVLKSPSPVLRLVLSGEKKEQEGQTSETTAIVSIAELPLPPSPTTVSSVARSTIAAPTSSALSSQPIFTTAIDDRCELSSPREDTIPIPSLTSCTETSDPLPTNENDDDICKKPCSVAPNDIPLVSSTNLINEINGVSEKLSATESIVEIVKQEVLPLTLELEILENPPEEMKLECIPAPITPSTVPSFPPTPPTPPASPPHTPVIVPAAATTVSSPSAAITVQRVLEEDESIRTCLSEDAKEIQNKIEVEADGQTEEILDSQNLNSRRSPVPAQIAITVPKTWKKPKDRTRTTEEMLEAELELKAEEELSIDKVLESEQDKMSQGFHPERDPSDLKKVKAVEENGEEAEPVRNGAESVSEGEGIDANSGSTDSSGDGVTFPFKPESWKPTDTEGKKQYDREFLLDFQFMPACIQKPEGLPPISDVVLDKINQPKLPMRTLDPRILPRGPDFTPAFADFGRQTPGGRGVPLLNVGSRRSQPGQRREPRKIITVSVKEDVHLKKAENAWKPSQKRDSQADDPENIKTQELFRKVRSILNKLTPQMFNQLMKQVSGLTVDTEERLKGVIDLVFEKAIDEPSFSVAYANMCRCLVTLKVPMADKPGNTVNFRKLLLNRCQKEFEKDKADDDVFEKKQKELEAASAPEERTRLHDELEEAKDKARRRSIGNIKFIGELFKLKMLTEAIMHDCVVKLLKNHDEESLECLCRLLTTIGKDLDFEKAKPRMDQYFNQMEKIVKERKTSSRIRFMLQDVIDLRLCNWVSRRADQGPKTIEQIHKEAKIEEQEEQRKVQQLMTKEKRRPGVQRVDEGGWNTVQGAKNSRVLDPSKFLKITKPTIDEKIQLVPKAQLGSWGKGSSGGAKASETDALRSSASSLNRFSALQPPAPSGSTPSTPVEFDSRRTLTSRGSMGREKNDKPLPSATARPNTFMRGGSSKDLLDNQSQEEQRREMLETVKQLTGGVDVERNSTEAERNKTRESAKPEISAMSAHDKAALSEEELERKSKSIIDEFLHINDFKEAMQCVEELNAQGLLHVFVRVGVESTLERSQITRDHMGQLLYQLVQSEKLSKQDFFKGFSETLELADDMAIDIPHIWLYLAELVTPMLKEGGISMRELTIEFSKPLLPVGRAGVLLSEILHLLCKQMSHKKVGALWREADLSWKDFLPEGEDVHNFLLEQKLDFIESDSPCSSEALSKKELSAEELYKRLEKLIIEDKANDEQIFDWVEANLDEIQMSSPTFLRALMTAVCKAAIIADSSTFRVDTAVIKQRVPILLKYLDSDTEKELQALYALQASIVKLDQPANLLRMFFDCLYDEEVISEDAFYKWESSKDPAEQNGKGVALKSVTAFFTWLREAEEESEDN
UniProt Q14240: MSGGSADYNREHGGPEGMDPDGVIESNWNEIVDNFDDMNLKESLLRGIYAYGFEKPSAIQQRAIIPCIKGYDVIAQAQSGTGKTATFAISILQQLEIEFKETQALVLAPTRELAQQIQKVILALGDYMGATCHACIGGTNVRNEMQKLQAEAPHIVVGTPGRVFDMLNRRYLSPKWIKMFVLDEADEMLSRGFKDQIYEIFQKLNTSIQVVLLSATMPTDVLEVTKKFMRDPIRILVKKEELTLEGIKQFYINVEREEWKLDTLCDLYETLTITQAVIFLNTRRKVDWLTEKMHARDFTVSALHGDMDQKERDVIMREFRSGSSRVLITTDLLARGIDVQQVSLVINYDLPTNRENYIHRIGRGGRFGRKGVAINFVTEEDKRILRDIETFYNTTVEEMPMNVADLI

This is an account of results in US20180201937A1.

Test [1] deals with eukaryotic initiation factor eIF4GII, expressed from pcDNA3-HA-eIF4GII (UniProt O43432). The experiment in a line: coimmunoprecipitation from HEK293 cells co-transfected with eIF4AII and eIF4GII vectors, using eIF4AII- or eIF4GII-specific antibody or control IgG; Western blot.
For test [2] the target is unchanged. Kind of test: immunoprecipitation from HEK293 cells co-transfected with eIF4AII and eIF4GII vectors, using eIF4AII- or eIF4GII-specific antibody; Western blot. For orientation: Immunoblotting shows a protein as a band on a membrane.

As to “eukaryotic initiation factor eIF4AII (human), expressed from pcDNA3.1-HisXpress-eIF4AII (from UniProt Q14240 1-407)”, the binding entry in test [1] and in test [2] was “binds” each time.
